Laboratory results as given in paper PMC11960969, “Mdga2 deficiency leads to an aberrant activation of BDNF/TrkB signaling that underlies autism-relevant synaptic and behavioral changes in mice” (PLOS Biology, 2025).
No constants are given. Whether binding was seen depends on the method and setting. Binding seen in cells or lysates may run through a third protein. A yes stands for co-enrichment or nearness to the bait. Other partners may have been found. Where a sequence is shown, tags or fusion partners need not be part of it.

Chains of the proteins cited; added tags and fusions are not shown. Residues count along the entry.
UniProt Q16620, residues 32-822: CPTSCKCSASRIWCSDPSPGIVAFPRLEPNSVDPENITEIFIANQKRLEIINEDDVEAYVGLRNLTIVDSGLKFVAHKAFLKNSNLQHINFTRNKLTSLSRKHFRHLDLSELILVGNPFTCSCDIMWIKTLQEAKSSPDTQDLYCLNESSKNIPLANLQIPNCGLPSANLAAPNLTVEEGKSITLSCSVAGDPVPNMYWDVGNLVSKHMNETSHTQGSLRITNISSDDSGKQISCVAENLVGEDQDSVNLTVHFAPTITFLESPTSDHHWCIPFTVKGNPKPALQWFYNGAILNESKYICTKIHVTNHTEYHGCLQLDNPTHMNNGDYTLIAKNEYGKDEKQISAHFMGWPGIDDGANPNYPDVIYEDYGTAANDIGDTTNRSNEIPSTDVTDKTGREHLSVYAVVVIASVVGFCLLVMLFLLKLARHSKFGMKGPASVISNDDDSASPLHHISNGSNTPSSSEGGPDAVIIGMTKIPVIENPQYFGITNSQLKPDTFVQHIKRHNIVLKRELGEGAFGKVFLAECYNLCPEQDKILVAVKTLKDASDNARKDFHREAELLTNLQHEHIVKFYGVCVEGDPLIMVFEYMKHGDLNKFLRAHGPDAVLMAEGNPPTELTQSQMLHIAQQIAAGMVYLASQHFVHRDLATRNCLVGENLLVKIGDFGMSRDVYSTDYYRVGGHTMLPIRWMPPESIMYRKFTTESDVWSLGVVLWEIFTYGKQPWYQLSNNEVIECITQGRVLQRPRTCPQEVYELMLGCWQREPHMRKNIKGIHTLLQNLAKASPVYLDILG

Target: T1, GFP-tagged full-length human MDGA2 (MDGA2-GFP) (human) (UniProt Q7Z553)
T1 sequence: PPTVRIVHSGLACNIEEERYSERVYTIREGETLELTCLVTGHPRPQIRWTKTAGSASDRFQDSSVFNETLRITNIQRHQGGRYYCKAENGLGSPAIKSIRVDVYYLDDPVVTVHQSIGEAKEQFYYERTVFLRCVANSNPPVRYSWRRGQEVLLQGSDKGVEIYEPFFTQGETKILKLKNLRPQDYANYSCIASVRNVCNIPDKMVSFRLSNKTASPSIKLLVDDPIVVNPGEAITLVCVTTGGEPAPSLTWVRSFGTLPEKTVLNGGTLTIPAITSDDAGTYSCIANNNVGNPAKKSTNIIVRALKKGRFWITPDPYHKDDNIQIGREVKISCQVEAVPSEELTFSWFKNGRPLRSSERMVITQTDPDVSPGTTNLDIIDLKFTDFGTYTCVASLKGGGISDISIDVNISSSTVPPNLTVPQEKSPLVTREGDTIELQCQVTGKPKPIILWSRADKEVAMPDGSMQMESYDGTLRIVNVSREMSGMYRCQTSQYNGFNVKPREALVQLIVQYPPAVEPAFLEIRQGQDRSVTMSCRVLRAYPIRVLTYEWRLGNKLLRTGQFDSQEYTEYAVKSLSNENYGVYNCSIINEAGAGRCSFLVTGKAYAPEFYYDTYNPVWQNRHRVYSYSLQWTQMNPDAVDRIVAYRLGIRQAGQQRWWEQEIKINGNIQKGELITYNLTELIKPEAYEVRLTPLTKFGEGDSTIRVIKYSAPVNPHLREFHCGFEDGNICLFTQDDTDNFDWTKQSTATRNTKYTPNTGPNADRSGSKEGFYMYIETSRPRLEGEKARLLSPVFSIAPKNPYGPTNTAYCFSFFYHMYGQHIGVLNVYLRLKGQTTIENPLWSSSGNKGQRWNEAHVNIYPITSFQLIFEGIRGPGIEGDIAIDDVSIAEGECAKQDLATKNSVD
Assay: affinity purification with mass spectrometry; MDGA2-GFP expressed in SH-SY5Y cells for 24 h; lysate (10 mM Tris-HCl pH 7.5, 150 mM NaCl, 0.5 mM EDTA, 0.5% NP-40) precipitated with anti-GFP and Protein G Agarose at 4 °C overnight; LC-MS/MS

- binding: binds
Substance: TrkB, endogenous in SH-SY5Y cells (from UniProt Q16620 32-822) (receptor)
